Values of other authors as cited in US8357365B2, “Granulysin peptides and methods of use thereof” (The Regents of the University of California, priority 2005, dated 2013).
Some results were stated once for a whole list of compounds, not compound by compound.

Test system: bacteria
Details: relative to granulysin, Ernst et al. (2000); cited from earlier work

## GRDYRTSLTIVQKLKKMVDK [1-20]
  anti-bacterial activity retained: < 20%

## GRDYRTSLTIVQKLKKMVDKPTQRSVSNAATRVSR [1-35]
  anti-bacterial activity retained: 50-80%

## KMVDKPTQRSVSNAATRVSR [16-35]
  anti-bacterial activity retained: < 20%

## RNFMRRYQSRVIQGLVAGET [46-65]
  anti-bacterial activity retained: < 20%

## TGRSRWRDVSRNFMRRYQSRVIQGLVAGETAQQIS [36-70]
  anti-bacterial activity retained: 50-80%

## TRVSRTGRSRWRDVSRNFMR [31-50]
  anti-bacterial activity retained: 50-80%

## VAGETAQQISEDLR [61-80]
  anti-bacterial activity retained: < 20%
